From the supplement of paper PMC7024190 come the findings set out here.

The structures appear in SMILES notation. Counter-ions that a name gives are not always drawn. Some of the results follow. This data set is noisy: repeats of one test often differ as much as different tests do.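 The cells were human embryonic kidney cells carrying a Renilla luciferase gene, driven by the HSV-TK promoter, on a plasmid put in briefly by transfection. This is the first-round screen of about ten thousand compounds, looking for ones that raise reporter output.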

The assay relates to HEK 293FT. The experiment in a line: log relative Renilla luciferase luminescence (reporter expression vs reference, reference not stated) (log (base not stated)); higher = higher recombinant reporter expression. To be noted: 10 µM; time after transfection 48 h.
Consider `CCCCCCCCCCC(C)(C)C(=O)Nc1c(OC)cc(OC)cc1OC`, for which the log amounted to 0.0591.

In the case of `O=c1cc(-c2cccc3c2Sc2ccccc2S3)oc(N2CCOCC2)c1`, the log was determined as 0.277. Take `Cc1ccc(NC(=O)C(C)C)cc1C1CCN(Cc2ccc(Oc3ccc(F)c(F)c3)cc2)CC1`: the log was -0.0449. `Clc1ccc2c(c1)N=C(N1CCNCC1)c1ccccc1N2` [N-Desmethylclozapine]: the log was 0.14. Take `CCOC(=O)C1=C(COCCN)NC(C)=C(C(=O)OC)C1c1ccccc1Cl` (stereo unspecified) [Amlodipine besylate]: the log was -0.17. The figure for `CCCNC(=O)N1N=C(c2ccc(N)cc2)c2cc3c(cc2C1C)OCO3` (stereo unspecified) is 0.0792; for `CCOc1ccc(Nc2nc(-c3c(C)nc4ccccn34)cs2)cc1` it is 0.137. The figure for `Nc1ncnc2c1ncn2[C@@H]1O[C@H](CO)C[C@H]1O` [Cordycepin] is -0.151. Under `O=S(=O)(c1cccc2c(Cl)cccc12)N1CCCNCC1` [ML 9 hydrochloride] stands 0.108; under `O=[N+]([O-])c1cccc2c(Br)[nH]nc12` [3-Bromo-7-nitroindazole], -0.05. In the case of `COc1cc2nc(N3CCN(C(=O)C4CCCO4)CC3)nc(N)c2cc1OC` (stereo unspecified) [Terazosin hydrochloride], the log stood at 0.171.

For `O=C1C(Cl)=C(NCCN2CCOCC2)C(=O)c2ncccc21`, the log stood at 0.0512. Turning to `CC[N+](C)(CC)CC(=O)Nc1c(C)cccc1C` [N-Methyllidocaine iodide], the log was -0.0684. Under `CN(C)CCCCSC(=N)N` stands 0.03. The figure for `COc1cc2c(Nc3ccc(NC(=O)c4ccccc4)cc3)ncnc2cc1OCCCN1CCOCC1` is -1.64.

On to `O=C(O)c1cc(=O)c2c(Cl)cc(Cl)cc2[nH]1` [5,7-Dichlorokynurenic acid], for which the log was -0.012.
